# These are yes or no findings as the source states them, for the method shown. In cells and extracts the contact can be indirect. Some binding calls cover weakened binding; strength is not graded here.
# Amino acid sequences for entries named in this document (tags omitted). Residues count along the entry.
# UniProt Q9P0V8, residues 23-285: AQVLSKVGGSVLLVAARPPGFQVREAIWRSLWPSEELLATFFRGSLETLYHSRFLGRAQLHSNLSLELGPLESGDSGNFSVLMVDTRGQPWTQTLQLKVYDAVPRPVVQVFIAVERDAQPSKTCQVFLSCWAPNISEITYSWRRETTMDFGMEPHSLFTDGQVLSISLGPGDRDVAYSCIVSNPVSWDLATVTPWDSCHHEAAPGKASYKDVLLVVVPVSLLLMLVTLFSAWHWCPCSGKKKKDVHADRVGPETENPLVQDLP
# UniProt Q9NP99, residues 21-234: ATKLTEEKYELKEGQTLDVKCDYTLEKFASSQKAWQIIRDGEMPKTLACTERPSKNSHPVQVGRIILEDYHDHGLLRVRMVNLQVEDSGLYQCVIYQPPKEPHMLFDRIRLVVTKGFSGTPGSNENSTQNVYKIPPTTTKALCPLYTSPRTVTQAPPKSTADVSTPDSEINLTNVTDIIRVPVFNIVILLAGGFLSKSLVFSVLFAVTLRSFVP
# UniProt O00206, residues 24-839: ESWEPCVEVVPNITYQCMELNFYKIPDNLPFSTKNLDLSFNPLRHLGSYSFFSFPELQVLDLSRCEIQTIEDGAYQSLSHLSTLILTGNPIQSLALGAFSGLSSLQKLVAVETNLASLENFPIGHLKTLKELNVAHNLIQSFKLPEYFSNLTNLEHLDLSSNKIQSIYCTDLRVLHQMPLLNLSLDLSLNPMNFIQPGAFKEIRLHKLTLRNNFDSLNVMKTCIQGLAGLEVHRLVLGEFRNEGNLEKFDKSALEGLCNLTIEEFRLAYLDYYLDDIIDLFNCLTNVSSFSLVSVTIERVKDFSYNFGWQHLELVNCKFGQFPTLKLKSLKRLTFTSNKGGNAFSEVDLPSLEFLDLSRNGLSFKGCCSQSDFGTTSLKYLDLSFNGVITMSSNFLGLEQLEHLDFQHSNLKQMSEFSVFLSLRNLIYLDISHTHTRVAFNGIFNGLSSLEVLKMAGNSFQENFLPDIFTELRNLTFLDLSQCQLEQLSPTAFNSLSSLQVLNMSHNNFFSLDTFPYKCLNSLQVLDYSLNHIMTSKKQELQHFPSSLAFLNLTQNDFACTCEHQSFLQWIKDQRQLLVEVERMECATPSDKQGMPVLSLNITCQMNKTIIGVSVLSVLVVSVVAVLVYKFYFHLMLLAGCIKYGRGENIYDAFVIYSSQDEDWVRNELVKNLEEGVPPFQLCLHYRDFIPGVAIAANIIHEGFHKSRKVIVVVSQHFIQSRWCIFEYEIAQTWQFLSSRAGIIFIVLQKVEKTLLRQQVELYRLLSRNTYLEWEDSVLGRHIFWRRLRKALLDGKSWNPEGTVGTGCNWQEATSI
# Legend:
# [1] = molecular target: signaling lymphocyte activating molecule family member 8 (SLAMF8) (human (endogenous in THP-1; species of the FLAG-labeled cDNA not stated)) (UniProt Q9P0V8); assay: co-IP; THP-1 cell lysate, precleared with protein A+G agarose plus species-specific IgG (4 °C, 2 h); anti-FLAG or control IgG at 4 °C overnight, protein A+G agarose 3 h, washed three times with PBS, western blot; also done after SLAMF8 knockdown (Figure S2C: interaction of SLAMF8 with TREM1 attenuated)
# [2] = molecular target: Triggering receptor expressed on myeloid cells 1 (TREM1) (human) (UniProt Q9NP99); assay: as above
substance,measurement,setting,value
TLR4 (from UniProt O00206 24-839) (receptor),binding,[1],no binding
same,binding,[2],binds
Triggering receptor expressed on myeloid cells 1 (TREM1) (from UniProt Q9NP99 21-234),binding,[1],binds
